From PMC8868058 come the findings set out here.

By UniProt entry, the sequences of proteins in these tests, tags left out. Where a name states a change or a piece, a line headed by the entry shows the natural chain unless it says otherwise.
UniProt P63104: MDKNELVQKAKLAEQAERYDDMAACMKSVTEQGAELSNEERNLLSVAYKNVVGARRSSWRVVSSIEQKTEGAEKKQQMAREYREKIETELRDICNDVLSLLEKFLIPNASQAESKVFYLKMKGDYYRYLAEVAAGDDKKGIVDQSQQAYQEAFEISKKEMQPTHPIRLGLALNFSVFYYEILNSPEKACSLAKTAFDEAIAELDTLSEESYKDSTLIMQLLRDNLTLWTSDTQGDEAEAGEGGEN

These are yes or no findings as the source states them, for the method shown. Binding seen in cells or lysates may run through a third protein. Some results given as binding are weak or reduced against the parent protein; the word gives no strength.

The target of this test is T1, heme oxygenase 1 (HO-1), endogenous (human (endogenous in PC3)) (UniProt P09601).
T1 sequence: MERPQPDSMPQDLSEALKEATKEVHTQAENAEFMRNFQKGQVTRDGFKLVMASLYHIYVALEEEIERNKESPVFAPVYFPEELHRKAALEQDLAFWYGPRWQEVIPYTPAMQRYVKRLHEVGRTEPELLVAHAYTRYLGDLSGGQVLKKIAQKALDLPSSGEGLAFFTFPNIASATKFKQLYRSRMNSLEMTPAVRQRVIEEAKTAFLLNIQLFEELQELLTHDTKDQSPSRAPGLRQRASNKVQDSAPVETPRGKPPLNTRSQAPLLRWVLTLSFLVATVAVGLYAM
Kind of test: co-IP; PC3 lysates (cells treated with H2O2 or vehicle), 500 µg protein with 10 µg rabbit anti-human HO-1 antibody in RIPA buffer overnight at 4 °C, Protein A/G PLUS-Agarose; Western blot for 14-3-3ζ/δ; nonspecific IgG as control. On the technique in general: A western blot detects proteins with antibodies after separation by electrophoresis.

As for “14-3-3 zeta delta-like protein (14-3-3ζ/δ) (from UniProt P63104 1-245)”, the binding entry is “binds”.
